Measurements: article PMC5030362
Results are given in words; binding and its absence hold for the method and conditions named. In cells and extracts the contact can be indirect. A result given as binding can be weak or reduced; the word gives no strength.

Protein sequences, listed by entry. Tags and fused reporters are not part of them.
UniProt P03129: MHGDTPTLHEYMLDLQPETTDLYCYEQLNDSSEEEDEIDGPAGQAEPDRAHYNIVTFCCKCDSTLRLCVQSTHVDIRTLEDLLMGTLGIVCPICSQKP

B1: PTPN14, endogenous (protein, UniProt Q15678 1-1187)
chain: MPFGLKLRRTRRYNVLSKNCFVTRIRLLDSNVIECTLSVESTGQECLEAVAQRLELRETHYFGLWFLSKSQQARWVELEKPLKKHLDKFANEPLLFFGVMFYVPNVSWLQQEATRYQYYLQVKKDVLEGRLRCTLDQVIRLAGLAVQADFGDYNQFDSQDFLREYVLFPMDLALEEAVLEELTQKVAQEHKAHSGILPAEAELMYINEVERLDGFGQEIFPVKDNHGNCVHLGIFFMGIFVRNRIGRQAVIYRWNDMGNITHNKSTILVELINKEETALFHTDDIENAKYISRLFATRHKFYKQNKICTEQSNSPPPIRRQPTWSRSSLPRQQPYILPPVHVQCGEHYSETHTSQDSIFHGNEEALYCNSHNSLDLNYLNGTVTNGSVCSVHSVNSLNCSQSFIQASPVSSNLSIPGSDIMRADYIPSHRHSAIIVPSYRPTPDYETVMRQMKRGILHTDSQSQSLRNLNIINTHAYNQPEDLVYSQPEMRERHPYTVPYGPQGVYSNKLVSPSDQRNPKNNVVPSKPGASAISHTVSTPELANMQLQGSHNYSTAHMLKNYLFRPPPPYPRPRPATSTPDLASHRHKYVSGSSPDLVTRKVQLSVKTFQEDSSPVVHQSLQEVSEPLTATKHHGTVNKRHSLEVMNSMVRGMEAMTLKSLHLPMARRNTLREQGPPEEGSGSHEVPQLPQYHHKKTFSDATMLIHSSESEEEEEEAPESVPQIPMLREKMEYSAQLQAALARIPNKPPPEYPGPRKSVSNGALRQDQASLPPAMARARVLRHGPAKAISMSRTDPPAVNGASLGPSISEPDLTSVKERVKKEPVKERPVSEMFSLEDSIIEREMMIRNLEKQKMAGLEAQKRPLMLAALNGLSVARVSGREENRVDATRVPMDERFRTLKKKLEEGMVFTEYEQIPKKKANGIFSTAALPENAERSRIREVVPYEENRVELIPTKENNTGYINASHIKVVVGGAEWHYIATQGPLPHTCHDFWQMVWEQGVNVIAMVTAEEEGGRTKSHRYWPKLGSKHSSATYGKFKVTTKFRTDSVCYATTGLKVKHLLSGQERTVWHLQYTDWPDHGCPEDVQGFLSYLEEIQSVRRHTNSMLEGTKNRHPPIVVHCSAGVGRTGVLILSELMIYCLEHNEKVEVPMMLRLLREQRMFMIQTIAQYKFVYQVLIQFLQNSRLI

Tests used:
[1] = biological target: HPV16 E7-Flag-HA, wild type (human papillomavirus type 16) (UniProt P03129); assay: co-IP; N/Tert-1 E7-Flag-HA cells transduced with V5-tagged PTPN14 forms or fragments, harvested 48 h posttransduction; anti-HA immunoprecipitation, Western blot for V5 or PTPN14
[2] = biological target: HPV17a E7-Flag-HA (human papillomavirus type 17a); assay: co-IP; anti-HA agarose immunoprecipitation of HA-tagged E7 from N/Tert-1 cell lysates; endogenous partners detected by Western blot

| Molecule | binding [1] | binding [2] |
| --- | --- | --- |
| PTPN14 ΔLinker 2, N-terminal V5 tag (from UniProt Q15678) | binds | – |
| B1 | – | binds |
